Assay results published in the supplement of paper PMC10849652.
The other results are listed elsewhere or left out.

Sequences of proteins named here, by UniProt entry; tags and fusion partners are left off. A change or cut given only in a name is not applied to a line headed by its entry.
UniProt Q9NX74: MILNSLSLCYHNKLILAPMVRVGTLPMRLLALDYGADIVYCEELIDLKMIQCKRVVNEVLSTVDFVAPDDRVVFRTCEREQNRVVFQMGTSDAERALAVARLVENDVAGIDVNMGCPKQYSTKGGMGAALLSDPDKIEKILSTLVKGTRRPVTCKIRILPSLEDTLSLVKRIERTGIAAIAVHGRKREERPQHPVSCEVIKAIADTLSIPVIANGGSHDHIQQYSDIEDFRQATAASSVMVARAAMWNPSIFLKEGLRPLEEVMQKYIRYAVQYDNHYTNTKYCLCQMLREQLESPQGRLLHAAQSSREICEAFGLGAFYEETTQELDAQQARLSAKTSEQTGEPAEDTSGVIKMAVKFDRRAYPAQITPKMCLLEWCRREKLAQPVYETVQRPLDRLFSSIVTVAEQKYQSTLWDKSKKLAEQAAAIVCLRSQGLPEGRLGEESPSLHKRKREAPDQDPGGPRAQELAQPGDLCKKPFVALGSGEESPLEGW
UniProt Q9H2P9: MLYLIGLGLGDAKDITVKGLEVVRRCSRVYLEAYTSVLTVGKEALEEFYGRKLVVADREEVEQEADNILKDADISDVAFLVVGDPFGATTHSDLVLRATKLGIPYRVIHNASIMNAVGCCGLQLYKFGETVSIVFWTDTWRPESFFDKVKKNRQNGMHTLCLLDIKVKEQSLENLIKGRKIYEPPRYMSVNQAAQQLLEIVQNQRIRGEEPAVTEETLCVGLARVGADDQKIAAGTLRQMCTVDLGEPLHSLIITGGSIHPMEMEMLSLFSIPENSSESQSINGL
UniProt Q5VYK3, whole entry, looked up: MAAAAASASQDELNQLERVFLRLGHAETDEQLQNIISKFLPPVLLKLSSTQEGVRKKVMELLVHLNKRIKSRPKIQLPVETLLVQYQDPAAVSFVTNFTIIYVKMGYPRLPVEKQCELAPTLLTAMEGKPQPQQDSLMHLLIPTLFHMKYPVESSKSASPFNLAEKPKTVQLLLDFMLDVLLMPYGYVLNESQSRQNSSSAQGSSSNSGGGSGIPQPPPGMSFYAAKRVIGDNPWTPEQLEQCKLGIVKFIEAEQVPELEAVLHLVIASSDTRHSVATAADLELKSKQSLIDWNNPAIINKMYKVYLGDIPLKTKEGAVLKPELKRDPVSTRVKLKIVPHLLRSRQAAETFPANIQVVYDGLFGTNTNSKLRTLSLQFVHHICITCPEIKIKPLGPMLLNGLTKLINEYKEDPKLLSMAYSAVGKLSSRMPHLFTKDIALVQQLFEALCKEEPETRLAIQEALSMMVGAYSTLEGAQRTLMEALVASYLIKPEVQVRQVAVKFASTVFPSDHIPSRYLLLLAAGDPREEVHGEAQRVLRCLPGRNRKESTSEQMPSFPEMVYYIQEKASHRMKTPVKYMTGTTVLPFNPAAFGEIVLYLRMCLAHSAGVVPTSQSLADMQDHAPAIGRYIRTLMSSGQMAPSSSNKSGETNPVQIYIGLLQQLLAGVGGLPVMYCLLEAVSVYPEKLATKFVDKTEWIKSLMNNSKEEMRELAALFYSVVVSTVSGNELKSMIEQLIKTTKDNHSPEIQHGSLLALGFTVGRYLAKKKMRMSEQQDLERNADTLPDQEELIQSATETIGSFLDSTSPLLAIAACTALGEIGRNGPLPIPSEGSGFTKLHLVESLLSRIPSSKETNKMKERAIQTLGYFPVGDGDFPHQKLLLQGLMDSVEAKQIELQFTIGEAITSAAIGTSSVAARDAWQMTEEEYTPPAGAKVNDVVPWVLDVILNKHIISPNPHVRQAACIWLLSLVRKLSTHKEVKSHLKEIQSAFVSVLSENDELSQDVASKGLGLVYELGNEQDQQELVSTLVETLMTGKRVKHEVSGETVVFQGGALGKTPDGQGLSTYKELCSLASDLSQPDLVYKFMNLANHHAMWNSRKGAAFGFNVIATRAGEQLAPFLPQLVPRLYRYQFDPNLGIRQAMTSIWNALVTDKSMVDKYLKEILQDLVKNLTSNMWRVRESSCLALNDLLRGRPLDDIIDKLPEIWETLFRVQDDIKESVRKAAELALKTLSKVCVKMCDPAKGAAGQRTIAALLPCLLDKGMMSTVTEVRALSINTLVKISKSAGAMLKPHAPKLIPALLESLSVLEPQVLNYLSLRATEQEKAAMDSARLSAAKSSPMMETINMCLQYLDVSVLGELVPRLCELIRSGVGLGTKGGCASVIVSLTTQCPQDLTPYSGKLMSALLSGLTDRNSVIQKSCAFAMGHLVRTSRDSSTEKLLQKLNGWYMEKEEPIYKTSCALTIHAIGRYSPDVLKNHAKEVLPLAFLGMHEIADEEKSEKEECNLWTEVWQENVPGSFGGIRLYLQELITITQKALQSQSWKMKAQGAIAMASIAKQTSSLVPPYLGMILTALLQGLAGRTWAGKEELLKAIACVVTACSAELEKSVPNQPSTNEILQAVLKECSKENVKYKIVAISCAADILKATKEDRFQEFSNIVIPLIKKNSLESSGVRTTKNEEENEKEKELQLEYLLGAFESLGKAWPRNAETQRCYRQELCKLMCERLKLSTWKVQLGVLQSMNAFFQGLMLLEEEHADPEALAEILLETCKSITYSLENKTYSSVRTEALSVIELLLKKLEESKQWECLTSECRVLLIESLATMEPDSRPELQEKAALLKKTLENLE
UniProt Q02487, whole entry, looked up: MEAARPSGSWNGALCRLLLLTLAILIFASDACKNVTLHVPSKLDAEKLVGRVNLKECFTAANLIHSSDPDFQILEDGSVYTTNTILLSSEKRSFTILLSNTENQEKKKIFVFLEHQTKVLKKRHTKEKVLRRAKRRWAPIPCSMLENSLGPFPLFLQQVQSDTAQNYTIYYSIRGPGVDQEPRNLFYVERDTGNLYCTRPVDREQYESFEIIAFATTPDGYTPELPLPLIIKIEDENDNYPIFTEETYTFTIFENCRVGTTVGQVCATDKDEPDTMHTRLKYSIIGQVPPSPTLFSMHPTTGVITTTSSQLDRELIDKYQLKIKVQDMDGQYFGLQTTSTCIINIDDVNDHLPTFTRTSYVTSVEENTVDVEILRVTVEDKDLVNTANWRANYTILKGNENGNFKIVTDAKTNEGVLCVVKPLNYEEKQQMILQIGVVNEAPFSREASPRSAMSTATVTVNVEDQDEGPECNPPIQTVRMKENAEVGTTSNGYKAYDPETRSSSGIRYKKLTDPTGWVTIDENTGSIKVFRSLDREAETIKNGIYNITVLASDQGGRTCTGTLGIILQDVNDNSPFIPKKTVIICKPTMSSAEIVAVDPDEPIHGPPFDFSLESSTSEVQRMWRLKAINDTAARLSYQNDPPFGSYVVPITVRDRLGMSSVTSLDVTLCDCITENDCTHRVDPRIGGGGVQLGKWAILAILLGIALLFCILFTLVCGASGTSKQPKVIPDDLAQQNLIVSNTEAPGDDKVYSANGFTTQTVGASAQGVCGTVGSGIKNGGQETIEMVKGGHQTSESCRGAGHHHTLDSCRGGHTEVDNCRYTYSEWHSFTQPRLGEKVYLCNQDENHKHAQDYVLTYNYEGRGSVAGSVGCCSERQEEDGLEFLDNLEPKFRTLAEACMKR
UniProt Q9BU89: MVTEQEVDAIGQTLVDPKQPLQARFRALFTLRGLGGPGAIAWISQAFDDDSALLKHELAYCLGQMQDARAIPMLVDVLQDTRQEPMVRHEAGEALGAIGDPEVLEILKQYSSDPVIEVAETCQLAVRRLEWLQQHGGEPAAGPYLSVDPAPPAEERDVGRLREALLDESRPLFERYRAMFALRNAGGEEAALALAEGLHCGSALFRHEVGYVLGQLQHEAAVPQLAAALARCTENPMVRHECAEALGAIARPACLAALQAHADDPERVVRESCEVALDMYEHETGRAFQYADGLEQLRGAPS
UniProt O75061: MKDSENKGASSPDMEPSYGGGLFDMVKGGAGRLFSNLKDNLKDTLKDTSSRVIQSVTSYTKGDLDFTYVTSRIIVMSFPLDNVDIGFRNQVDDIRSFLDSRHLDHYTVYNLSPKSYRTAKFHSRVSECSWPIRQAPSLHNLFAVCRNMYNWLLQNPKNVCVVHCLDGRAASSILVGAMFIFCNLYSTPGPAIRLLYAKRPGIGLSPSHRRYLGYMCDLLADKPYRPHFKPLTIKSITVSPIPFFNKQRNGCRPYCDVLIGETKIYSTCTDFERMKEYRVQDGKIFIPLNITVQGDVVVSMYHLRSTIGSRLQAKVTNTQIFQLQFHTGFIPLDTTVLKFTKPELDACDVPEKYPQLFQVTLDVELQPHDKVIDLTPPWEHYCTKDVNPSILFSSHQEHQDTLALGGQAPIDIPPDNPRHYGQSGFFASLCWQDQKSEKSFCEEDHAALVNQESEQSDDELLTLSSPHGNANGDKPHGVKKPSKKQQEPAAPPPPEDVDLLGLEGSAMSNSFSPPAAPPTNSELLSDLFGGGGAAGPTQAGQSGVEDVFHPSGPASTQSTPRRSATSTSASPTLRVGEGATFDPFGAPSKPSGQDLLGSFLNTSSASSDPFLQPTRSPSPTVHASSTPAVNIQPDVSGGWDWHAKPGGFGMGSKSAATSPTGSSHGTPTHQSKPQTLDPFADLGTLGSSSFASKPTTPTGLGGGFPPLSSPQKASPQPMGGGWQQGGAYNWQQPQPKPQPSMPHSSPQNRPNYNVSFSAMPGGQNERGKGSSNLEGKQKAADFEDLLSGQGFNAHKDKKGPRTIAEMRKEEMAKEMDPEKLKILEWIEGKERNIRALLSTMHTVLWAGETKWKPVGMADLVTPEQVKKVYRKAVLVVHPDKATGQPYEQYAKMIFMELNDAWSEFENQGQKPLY
UniProt O60762: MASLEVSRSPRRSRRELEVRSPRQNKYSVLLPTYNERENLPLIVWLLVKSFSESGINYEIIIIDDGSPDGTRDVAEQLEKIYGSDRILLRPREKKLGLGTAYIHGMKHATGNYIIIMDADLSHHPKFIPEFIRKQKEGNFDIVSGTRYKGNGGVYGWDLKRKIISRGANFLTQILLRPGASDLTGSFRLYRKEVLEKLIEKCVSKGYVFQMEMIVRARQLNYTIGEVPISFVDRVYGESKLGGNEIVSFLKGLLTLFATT
UniProt Q8NBA8: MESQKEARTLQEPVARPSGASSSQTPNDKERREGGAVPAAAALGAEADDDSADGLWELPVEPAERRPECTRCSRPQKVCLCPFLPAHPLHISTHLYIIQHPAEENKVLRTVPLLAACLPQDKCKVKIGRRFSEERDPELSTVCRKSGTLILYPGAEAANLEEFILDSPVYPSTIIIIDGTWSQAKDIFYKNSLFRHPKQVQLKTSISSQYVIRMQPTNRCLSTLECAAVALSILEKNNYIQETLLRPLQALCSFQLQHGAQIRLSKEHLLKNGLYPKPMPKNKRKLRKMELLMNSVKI
UniProt Q6V1X1: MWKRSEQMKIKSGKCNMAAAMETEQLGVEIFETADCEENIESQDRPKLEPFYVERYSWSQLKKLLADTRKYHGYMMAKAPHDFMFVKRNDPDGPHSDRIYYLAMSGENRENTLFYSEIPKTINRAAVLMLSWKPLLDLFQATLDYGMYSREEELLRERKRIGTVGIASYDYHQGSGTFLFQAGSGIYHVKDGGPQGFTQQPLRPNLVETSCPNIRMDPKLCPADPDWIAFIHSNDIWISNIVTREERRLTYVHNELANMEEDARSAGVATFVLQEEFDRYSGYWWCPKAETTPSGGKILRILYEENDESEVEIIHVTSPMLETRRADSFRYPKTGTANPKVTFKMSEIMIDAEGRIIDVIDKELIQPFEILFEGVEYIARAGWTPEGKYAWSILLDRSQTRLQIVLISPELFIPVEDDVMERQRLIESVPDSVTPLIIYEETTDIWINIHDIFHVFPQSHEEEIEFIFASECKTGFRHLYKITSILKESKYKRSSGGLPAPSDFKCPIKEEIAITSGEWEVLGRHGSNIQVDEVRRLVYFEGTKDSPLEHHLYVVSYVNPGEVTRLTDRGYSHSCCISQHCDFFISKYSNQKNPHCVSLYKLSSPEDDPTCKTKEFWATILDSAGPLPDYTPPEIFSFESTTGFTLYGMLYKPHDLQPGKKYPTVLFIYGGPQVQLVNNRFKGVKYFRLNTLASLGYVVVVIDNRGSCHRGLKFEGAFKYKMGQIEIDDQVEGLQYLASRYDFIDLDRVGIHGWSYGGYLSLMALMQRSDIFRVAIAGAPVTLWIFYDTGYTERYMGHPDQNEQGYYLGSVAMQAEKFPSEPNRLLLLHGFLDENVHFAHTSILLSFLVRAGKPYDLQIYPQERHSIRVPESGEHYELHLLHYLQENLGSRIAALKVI
UniProt Q9UNI6, whole entry, looked up: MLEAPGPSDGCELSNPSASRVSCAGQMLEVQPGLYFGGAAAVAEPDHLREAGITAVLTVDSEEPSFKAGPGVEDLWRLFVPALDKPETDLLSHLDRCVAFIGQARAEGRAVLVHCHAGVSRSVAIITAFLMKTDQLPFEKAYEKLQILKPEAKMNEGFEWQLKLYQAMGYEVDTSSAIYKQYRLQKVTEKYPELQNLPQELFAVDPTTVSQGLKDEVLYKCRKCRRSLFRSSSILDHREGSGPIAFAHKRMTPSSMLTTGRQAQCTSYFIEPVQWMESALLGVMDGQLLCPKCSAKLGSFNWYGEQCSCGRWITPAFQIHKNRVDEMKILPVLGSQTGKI

Columns and labels:
Test in all cases: log2 fold change, soluble protein after heating vs DMSO (PISA); higher = thermal stabilisation; K562 cells, 10 uM, 30 min; active = over 0.2 and 3.5 SD of the protein, either way, in both replicates (recomputed)
[1] = compound: CC[C@@H]1C(=O)N(C)c2cnc(Nc3ccc(C(=O)NC4CCN(C)CC4)cc3OC)nc2N1C1CCCC1
Summary of the method: (§1)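 Thermal stability values are relative to control samples and come from duplicates. They are expressed as log2 fold changes. For measurement, K562 cells (2×10^6 cells/mL) received 10 μM compound for 30 min, and aliquots were heated for 3 min over 48°C-58°C, pooled, and extracted at 4°C in PBS with 0.5% NP-40. Soluble protein, the supernatant after 21,000xg for 90 min, was quantified by TMTpro 16plex LC-MS/MS with equalised channel sums.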

volasertib = compound: CC[C@@H]1C(=O)N(C)c2cnc(Nc3ccc(C(=O)N[C@H]4CC[C@H](N5CCN(CC6CC6)CC5)CC4)cc3OC)nc2N1C(C)C [volasertib]
Summary of the method: as §1

[2] = compound: CC[C@H](C)N1C=C(C2=C(C=C(C=C21)C3=CN=C(C=C3)N4CCNCC4)C(=O)NCC5=C(C=C(NC5=O)C)C)C
Summary of the method: as §1

epoxomicin = compound: CC[C@H](C)[C@@H](C(=O)N[C@@H]([C@@H](C)O)C(=O)N[C@@H](CC(C)C)C(=O)[C@]1(CO1)C)NC(=O)[C@H]([C@@H](C)CC)N(C)C(=O)C [epoxomicin]
Summary of the method: as §1

[3] = compound: CCn1c(C(=O)N(C2CC2)C2CC2)cc2c3c(ncn3C)c(Nc3cc(C)n(C)n3)nc21
Summary of the method: as §1

[4] = compound: CCn1cc(-c2ccnc3[nH]c(-c4cccc(CN(C)C)c4)cc23)c(-c2ccc(NC(=O)N(C)C)cc2)n1
Summary of the method: as §1

[5] = compound: CN(C)CC(=O)Nc1ccc2[nH]c(=O)c3ccccc3c2c1
Summary of the method: as §1

rosiglitazone = compound: CN(CCOC1=CC=C(C=C1)C[C@H]2C(=O)NC(=O)S2)C3=CC=CC=N3 (racemic) [rosiglitazone]
Summary of the method: as §1

[6] = compound: CN1C2=C(C3=C1C(=O)N(N=C3)CC4=CC(=CC=C4)N)SC(=C2)S(=O)C
Summary of the method: as §1

[7] = compound: CN1CCC(CNc2ccc3ncc(-c4cccc(OC(F)(F)F)c4)n3n2)CC1
Summary of the method: as §1

saracatinib = compound: CN1CCN(CCOc2cc(OC3CCOCC3)c3c(Nc4c(Cl)ccc5c4OCO5)ncnc3c2)CC1 [saracatinib]
Summary of the method: as §1

sotrastaurin = compound: CN1CCN(c2nc(C3=C(c4c[nH]c5ccccc45)C(=O)NC3=O)c3ccccc3n2)CC1 [sotrastaurin]
Summary of the method: as §1

alvocidib = compound: CN1CC[C@H](c2c(O)cc(O)c3c(=O)cc(-c4ccccc4Cl)oc23)[C@H](O)C1 [alvocidib]
Summary of the method: as §1

Tubastatin A = compound: CN1CCc2c(c3ccccc3n2Cc2ccc(C(=O)NO)cc2)C1 [Tubastatin A]
Summary of the method: as §1

[8] = compound: CNC(=O)C1=CC=CC=C1NC2=NC(=NC=C2Cl)NC3=C(C=C(C=C3)N4CCOCC4)OC
Summary of the method: as §1

defactinib = compound: CNC(=O)c1ccc(Nc2ncc(C(F)(F)F)c(NCc3nccnc3N(C)S(C)(=O)=O)n2)cc1 [defactinib]
Summary of the method: as §1

rucaparib = compound: CNCc1ccc(-c2[nH]c3cc(F)cc4c3c2CCNC4=O)cc1 [rucaparib]
Summary of the method: as §1

[9] = compound: CNc1nc(-c2ccc3c(N)n[nH]c3c2)cc(N2C[C@@H](C(=O)NC3CCCCC3)CC[C@H]2C)n1
Summary of the method: as §1

encorafenib = compound: COC(=O)N[C@@H](C)CNc1nccc(-c2cn(C(C)C)nc2-c2cc(Cl)cc(NS(C)(=O)=O)c2F)n1 [encorafenib]
Summary of the method: as §1

[10] = compound: COC(=O)[C@H](CCSC)NC(=O)C1=C(C=C(C=C1)NC[C@H](CS)N)C2=CC=CC=C2
Summary of the method: as §1

Row | Target | log2 fold change [1] | log2 fold change (volasertib) | log2 fold change [2] | log2 fold change (epoxomicin) | log2 fold change [3] | log2 fold change [4] | log2 fold change [5] | log2 fold change (rosiglitazone) | log2 fold change [6] | log2 fold change [7] | log2 fold change (saracatinib) | log2 fold change (sotrastaurin) | log2 fold change (alvocidib) | log2 fold change (Tubastatin A) | log2 fold change [8] | log2 fold change (defactinib) | log2 fold change (rucaparib) | log2 fold change [9] | log2 fold change (encorafenib) | log2 fold change [10]
1 | DNAJC8 (UniProt O75937) | inactive: -0.063 | inactive: -0.158 | inactive: 0.034 | inactive: 0.034 | inactive: 0.02 | inactive: -0.004 | inactive: -0.004 | inactive: 0.037 | inactive: -0.075 | inactive: -0.029 | inactive: -0.028 | inactive: 0.015 | inactive: -0.047 | inactive: -0.014 | inactive: 0.028 | inactive: -0.032 | inactive: -0.044 | inactive: -0.015 | inactive: 0.039 | inactive: -0.027
2 | DUS2 (UniProt Q9NX74) | inactive: -0.052 | inactive: -0.242 | inactive: 0.037 | inactive: 0.059 | – | inactive: -0.029 | inactive: 0.055 | – | inactive: 0.115 | inactive: -0.02 | inactive: 0.112 | inactive: -0.098 | – | inactive: 0.041 | inactive: -0.048 | inactive: -0.093 | inactive: 0.042 | inactive: -0.113 | inactive: 0.09 | inactive: -0.02
3 | DNAJB1 (UniProt P25685) | inactive: 0.011 | active: -0.222 | inactive: 0.064 | inactive: -0.041 | – | inactive: -0.026 | inactive: -0.01 | – | inactive: -0.064 | inactive: -0.042 | inactive: -0.003 | inactive: -0.03 | – | inactive: -0.001 | inactive: -0.011 | inactive: -0.05 | inactive: -0.025 | inactive: -0.033 | inactive: -0.009 | inactive: -0.017
4 | EBNA1BP2 (UniProt Q99848) | inactive: 0.167 | inactive: 0.351 | inactive: 0.021 | inactive: -0.343 | – | inactive: 0.132 | inactive: -0.106 | – | inactive: 0.379 | inactive: 0.197 | inactive: -0.081 | inactive: -0.138 | – | inactive: 0.34 | inactive: -0.047 | inactive: 0.512 | inactive: 0.23 | inactive: 0.142 | inactive: 0.13 | inactive: 0.086
5 | DPH5 isoform 5 (UniProt Q9H2P9) | inactive: 0.047 | inactive: 0.08 | inactive: -0.022 | inactive: 0.049 | – | inactive: -0.018 | inactive: -0.013 | – | inactive: -0.115 | inactive: 0.034 | inactive: -0.007 | inactive: -0.017 | – | inactive: -0.022 | inactive: 0.07 | inactive: 0 | inactive: -0.061 | inactive: 0 | inactive: 0.025 | inactive: 0.004
6 | ECPAS (UniProt Q5VYK3) | inactive: -0.188 | active: -0.602 | inactive: 0.093 | active: 0.614 | – | inactive: -0.029 | inactive: 0.079 | – | inactive: 0.026 | inactive: -0.143 | inactive: -0.055 | inactive: -0.124 | – | inactive: 0.038 | inactive: 0.012 | inactive: -0.06 | inactive: 0.09 | inactive: 0.027 | inactive: 0.122 | inactive: -0.045
7 | DSC2 (UniProt Q02487) | inactive: -0.083 | inactive: -0.077 | inactive: 0.149 | inactive: -0.063 | inactive: -0.129 | inactive: -0.421 | inactive: 0.075 | inactive: 0.038 | inactive: 0.194 | inactive: -0.162 | inactive: -0.043 | inactive: 0.109 | inactive: 0.13 | inactive: 0.066 | inactive: 0.012 | inactive: -0.058 | inactive: 0.12 | inactive: -0.197 | inactive: -0.012 | inactive: 0.071
8 | DOHH (UniProt Q9BU89) | inactive: -0.035 | inactive: -0.027 | inactive: 0.031 | inactive: -0.197 | – | inactive: -0.1 | inactive: 0.145 | active: 0.471 | inactive: 0.025 | inactive: 0.164 | inactive: -0.035 | inactive: 0.196 | – | inactive: -0.121 | inactive: -0.076 | inactive: -0.152 | inactive: -0.002 | inactive: -0.064 | inactive: -0.074 | inactive: 0.037
9 | DNAJC6 isoform 2 (UniProt O75061) | inactive: 0.007 | inactive: -0.118 | inactive: 0.051 | inactive: 0.045 | inactive: 0.009 | inactive: -0.003 | inactive: -0.006 | inactive: 0.034 | inactive: -0.041 | inactive: -0.02 | inactive: 0.016 | inactive: -0.042 | inactive: -0.083 | inactive: 0.014 | inactive: -0.02 | inactive: -0.061 | inactive: -0.006 | inactive: -0.092 | inactive: 0.023 | inactive: -0.011
10 | DPM1 (UniProt O60762) | inactive: -0.007 | inactive: 0.068 | inactive: -0.012 | inactive: 0 | inactive: 0.013 | inactive: -0.003 | inactive: -0.002 | inactive: 0.021 | inactive: -0.07 | inactive: -0.032 | inactive: -0.019 | inactive: 0.033 | inactive: -0.01 | inactive: -0.014 | inactive: 0.062 | inactive: 0.01 | inactive: -0.043 | inactive: -0.068 | inactive: 0.008 | inactive: 0.04
11 | DTWD2 (UniProt Q8NBA8) | inactive: -0.047 | inactive: -0.048 | inactive: 0.057 | inactive: -0.015 | – | inactive: -0.018 | inactive: -0.106 | – | inactive: -0.066 | inactive: 0.035 | inactive: -0.032 | inactive: -0.228 | – | inactive: -0.029 | inactive: 0.111 | inactive: -0.022 | inactive: 0.05 | inactive: 0.04 | inactive: 0.002 | inactive: -0.032
12 | DYM (UniProt Q7RTS9) | inactive: -0.162 | inactive: -0.442 | inactive: 0.074 | inactive: 0.002 | inactive: -0.085 | inactive: -0.002 | inactive: 0.144 | inactive: 0.017 | – | inactive: -0.199 | – | inactive: 0.054 | inactive: 0.113 | inactive: -0.061 | inactive: -0.048 | inactive: -0.235 | inactive: 0.301 | – | inactive: 0.086 | inactive: -0.117
13 | EEA1 (UniProt Q15075) | inactive: 0.036 | inactive: 0.031 | inactive: -0.024 | inactive: 0.017 | – | inactive: 0.019 | inactive: -0.038 | – | inactive: -0.023 | inactive: 0.001 | inactive: 0.07 | inactive: 0.013 | – | inactive: -0.014 | inactive: -0.014 | inactive: -0.033 | inactive: -0.035 | inactive: -0.026 | inactive: -0.047 | inactive: 0.007
14 | DTWD1 (UniProt Q8N5C7) | inactive: -0.081 | inactive: -0.196 | inactive: -0.07 | inactive: -0.054 | – | inactive: -0.033 | inactive: 0.036 | – | inactive: -0.046 | inactive: 0.089 | inactive: 0.007 | inactive: -0.02 | – | inactive: -0.014 | inactive: 0.007 | inactive: -0.03 | inactive: 0.011 | inactive: 0.152 | inactive: 0.051 | inactive: -0.143
15 | EDC3 (UniProt Q96F86) | inactive: -0.006 | inactive: -0.192 | inactive: 0.057 | inactive: 0.003 | – | inactive: -0.031 | inactive: 0.058 | – | inactive: 0.094 | inactive: -0.251 | inactive: -0.041 | inactive: -0.304 | – | inactive: 0.053 | inactive: -0.021 | inactive: -0.04 | inactive: 0.015 | inactive: -0.237 | inactive: 0.048 | inactive: 0.005
16 | DPP8 (UniProt Q6V1X1) | inactive: 0.143 | inactive: 0.007 | inactive: -0.025 | inactive: -0.045 | – | inactive: 0.002 | inactive: -0.057 | – | inactive: -0.047 | inactive: -0.106 | inactive: -0.002 | inactive: 0.175 | – | inactive: 0.003 | inactive: -0.044 | inactive: 0.082 | active: -0.572 | inactive: -0.021 | inactive: 0.026 | inactive: 0.058
17 | DUSP12 (UniProt Q9UNI6) | inactive: -0.065 | inactive: -0.162 | inactive: 0.007 | inactive: 0.019 | inactive: 0 | inactive: -0.07 | inactive: -0.009 | inactive: 0.024 | inactive: -0.059 | inactive: -0.106 | inactive: 0.025 | inactive: 0.018 | inactive: -0.07 | inactive: 0.006 | inactive: 0.035 | inactive: -0.056 | inactive: -0.111 | inactive: -0.025 | inactive: 0.016 | inactive: -0.007

Two entries drawn at random from the list so far:
Row | Target | log2 fold change [1] | log2 fold change (volasertib) | log2 fold change [2] | log2 fold change (epoxomicin) | log2 fold change [3] | log2 fold change [4] | log2 fold change [5] | log2 fold change (rosiglitazone) | log2 fold change [6] | log2 fold change [7] | log2 fold change (saracatinib) | log2 fold change (sotrastaurin) | log2 fold change (alvocidib) | log2 fold change (Tubastatin A) | log2 fold change [8] | log2 fold change (defactinib) | log2 fold change (rucaparib) | log2 fold change [9] | log2 fold change (encorafenib) | log2 fold change [10]
6 | ECPAS (UniProt Q5VYK3) | inactive: -0.188 | active: -0.602 | inactive: 0.093 | active: 0.614 | – | inactive: -0.029 | inactive: 0.079 | – | inactive: 0.026 | inactive: -0.143 | inactive: -0.055 | inactive: -0.124 | – | inactive: 0.038 | inactive: 0.012 | inactive: -0.06 | inactive: 0.09 | inactive: 0.027 | inactive: 0.122 | inactive: -0.045
9 | DNAJC6 isoform 2 (UniProt O75061) | inactive: 0.007 | inactive: -0.118 | inactive: 0.051 | inactive: 0.045 | inactive: 0.009 | inactive: -0.003 | inactive: -0.006 | inactive: 0.034 | inactive: -0.041 | inactive: -0.02 | inactive: 0.016 | inactive: -0.042 | inactive: -0.083 | inactive: 0.014 | inactive: -0.02 | inactive: -0.061 | inactive: -0.006 | inactive: -0.092 | inactive: 0.023 | inactive: -0.011
